Laboratory results taken from publication PMC4632068.
Results are given in words; binding and its absence hold for the method and conditions named. Binding seen in cells or lysates may run through a third protein. These calls come from enrichment with a bait or labelling near it, and not all partners need be listed. Sequences can lack the tags named with a protein.

T1: Dhh1−GFP (S. cerevisiae (endogenous in BY4741-derived yeast)) (UniProt P39517)
T1 sequence: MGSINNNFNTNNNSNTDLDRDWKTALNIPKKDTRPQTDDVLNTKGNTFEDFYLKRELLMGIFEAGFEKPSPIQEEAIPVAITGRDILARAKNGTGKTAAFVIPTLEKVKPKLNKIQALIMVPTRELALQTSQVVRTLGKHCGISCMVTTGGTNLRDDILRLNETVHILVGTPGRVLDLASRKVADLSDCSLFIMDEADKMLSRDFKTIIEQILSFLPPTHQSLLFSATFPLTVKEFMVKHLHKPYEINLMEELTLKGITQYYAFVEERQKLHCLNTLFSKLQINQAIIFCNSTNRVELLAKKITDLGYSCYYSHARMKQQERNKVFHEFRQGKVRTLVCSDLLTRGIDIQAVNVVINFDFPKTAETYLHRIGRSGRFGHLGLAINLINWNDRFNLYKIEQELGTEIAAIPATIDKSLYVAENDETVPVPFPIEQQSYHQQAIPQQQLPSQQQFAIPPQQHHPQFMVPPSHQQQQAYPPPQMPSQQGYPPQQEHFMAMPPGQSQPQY

B1: Ubp3 (protein, UniProt Q01477 1-912)
chain: MNMQDANKEESYSMYPKTSSPPPPTPTNMQIPIYQAPLQMYGYTQAPYLYPTQIPAYSFNMVNQNQPIYHQSGSPHHLPPQNNINGGSTTNNNNINKKKWHSNGITNNNGSSGNQGANSSGSGMSYNKSHTYHHNYSNNHIPMMASPNSGSNAGMKKQTNSSNGNGSSATSPSYSSYNSSSQYDLYKFDVTKLKNLKENSSNLIQLPLFINTTEAEFAAASVQRYELNMKALNLNSESLENSSVEKSSAHHHTKSHSIPKHNEEVKTETHGEEEDAHDKKPHASKDAHELKKKTEVKKEDAKQDRNEKVIQEPQATVLPVVDKKEPEESVEENTSKTSSPSPSPPAAKSWSAIASDAIKSRQASNKTVSGSMVTKTPISGTTAGVSSTNMAAATIGKSSSPLLSKQPQKKDKKYVPPSTKGIEPLGSIALRMCFDPDFISYVLRNKDVENKIPVHSIIPRGIINRANICFMSSVLQVLLYCKPFIDVINVLSTRNTNSRVGTSSCKLLDACLTMYKQFDKETYEKKFLENADDAEKTTESDAKKSSKSKSFQHCATADAVKPDEFYKTLSTIPKFKDLQWGHQEDAEEFLTHLLDQLHEELISAIDGLTDNEIQNMLQSINDEQLKVFFIRNLSRYGKAEFIKNASPRLKELIEKYGVINDDSTEENGWHEVSGSSKRGKKTKTAAKRTVEIVPSPISKLFGGQFRSVLDIPNNKESQSITLDPFQTIQLDISDAGVNDLETAFKKFSEYELLPFKSSSGNDVEAKKQTFIDKLPQVLLIQFKRFSFINNVNKDNAMTNYNAYNGRIEKIRKKIKYGHELIIPEESMSSITLKNNTSGIDDRRYKLTGVIYHHGVSSDGGHYTADVYHSEHNKWYRIDDVNITELEDDDVLKGGEEASDSRTAYILMYQKRN
B2: Asc1 (protein, UniProt P38011 1-319)
chain: MASNEVLVLRGTLEGHNGWVTSLATSAGQPNLLLSASRDKTLISWKLTGDDQKFGVPVRSFKGHSHIVQDCTLTADGAYALSASWDKTLRLWDVATGETYQRFVGHKSDVMSVDIDKKASMIISGSRDKTIKVWTIKGQCLATLLGHNDWVSQVRVVPNEKADDDSVTIISAGNDKMVKAWNLNQFQIEADFIGHNSNINTLTASPDGTLIASAGKDGEIMLWNLAAKKAMYTLSAQDEVFSLAFSPNRYWLAAATATGIKVFSLDPQYLVDDLRPEFAGYSKAAEPHAVSLAWSADGQTLFAGYTDNVIRVWQVMTAN
B3: Sse1 (protein, UniProt P32589 1-693)
chain: MSTPFGLDLGNNNSVLAVARNRGIDIVVNEVSNRSTPSVVGFGPKNRYLGETGKNKQTSNIKNTVANLKRIIGLDYHHPDFEQESKHFTSKLVELDDKKTGAEVRFAGEKHVFSATQLAAMFIDKVKDTVKQDTKANITDVCIAVPPWYTEEQRYNIADAARIAGLNPVRIVNDVTAAGVSYGIFKTDLPEGEEKPRIVAFVDIGHSSYTCSIMAFKKGQLKVLGTACDKHFGGRDFDLAITEHFADEFKTKYKIDIRENPKAYNRILTAAEKLKKVLSANTNAPFSVESVMNDVDVSSQLSREELEELVKPLLERVTEPVTKALAQAKLSAEEVDFVEIIGGTTRIPTLKQSISEAFGKPLSTTLNQDEAIAKGAAFICAIHSPTLRVRPFKFEDIHPYSVSYSWDKQVEDEDHMEVFPAGSSFPSTKLITLNRTGDFSMAASYTDITQLPPNTPEQIANWEITGVQLPEGQDSVPVKLKLRCDPSGLHTIEEAYTIEDIEVEEPIPLPEDAPEDAEQEFKKVTKTVKKDDLTIVAHTFGLDAKKLNELIEKENEMLAQDKLVAETEDRKNTLEEYIYTLRGKLEEEYAPFASDAEKTKLQGMLNKAEEWLYDEGFDSIKAKYIAKYEELASLGNIIRGRYLAKEEEKKQAIRSKQEASQMAAMAEKLAAQRKAEAEKKEEKKDTEGDVDMD
B4: Rps30A (protein, UniProt P0CX33 1-63)
chain: MAKVHGSLARAGKVKSQTPKVEKTEKPKKPKGRAYKRLLYTRRFVNVTLVNGKRRMNPGPSVQ
B5: Bat1 (protein, UniProt P38891 17-393)
chain: LATGAPLDASKLKITRNPNPSKPRPNEELVFGQTFTDHMLTIPWSAKEGWGTPHIKPYGNLSLDPSACVFHYAFELFEGLKAYRTPQNTITMFRPDKNMARMNKSAARICLPTFESEELIKLTGKLIEQDKHLVPQGNGYSLYIRPTMIGTSKGLGVGTPSEALLYVITSPVGPYYKTGFKAVRLEATDYATRAWPGGVGDKKLGANYAPCILPQLQAAKRGYQQNLWLFGPEKNITEVGTMNVFFVFLNKVTGKKELVTAPLDGTILEGVTRDSVLTLARDKLDPQEWDINERYYTITEVATRAKQGELLEAFGSGTAAVVSPIKEIGWNNEDIHVPLLPGEQCGALTKQVAQWIADIQYGRVNYGNWSKTVADLN
B6: Gln1 (protein, UniProt P32288 1-370)
chain: MAEASIEKTQILQKYLELDQRGRIIAEYVWIDGTGNLRSKGRTLKKRITSIDQLPEWNFDGSSTNQAPGHDSDIYLKPVAYYPDPFRRGDNIVVLAACYNNDGTPNKFNHRHEAAKLFAAHKDEEIWFGLEQEYTLFDMYDDVYGWPKGGYPAPQGPYYCGVGAGKVYARDMIEAHYRACLYAGLEISGINAEVMPSQWEFQVGPCTGIDMGDQLWMARYFLHRVAEEFGIKISFHPKPLKGDWNGAGCHTNVSTKEMRQPGGMKYIEQAIEKLSKRHAEHIKLYGSDNDMRLTGRHETASMTAFSSGVANRGSSIRIPRSVAKEGYGYFEDRRPASNIDPYLVTGIMCETVCGAIDNADMTKEFERESS
B7: Hom6 (protein, UniProt P31116 1-359)
chain: MSTKVVNVAVIGAGVVGSAFLDQLLAMKSTITYNLVLLAEAERSLISKDFSPLNVGSDWKAALAASTTKTLPLDDLIAHLKTSPKPVILVDNTSSAYIAGFYTKFVENGISIATPNKKAFSSDLATWKALFSNKPTNGFVYHEATVGAGLPIISFLREIIQTGDEVEKIEGIFSGTLSYIFNEFSTSQANDVKFSDVVKVAKKLGYTEPDPRDDLNGLDVARKVTIVGRISGVEVESPTSFPVQSLIPKPLESVKSADEFLEKLSDYDKDLTQLKKEAATENKVLRFIGKVDVATKSVSVGIEKYDYSHPFASLKGSDNVISIKTKRYTNPVVIQGAGAGAAVTAAGVLGDVIKIAQRL
B8: Met6 (protein, UniProt P05694 1-767)
chain: MVQSAVLGFPRIGPNRELKKATEGYWNGKITVDELFKVGKDLRTQNWKLQKEAGVDIIPSNDFSFYDQVLDLSLLFNVIPDRYTKYDLSPIDTLFAMGRGLQRKATETEKAVDVTALEMVKWFDSNYHYVRPTFSKTTQFKLNGQKPVDEFLEAKELGIHTRPVLLGPVSYLFLGKADKDSLDLEPLSLLEQLLPLYTEILSKLASAGATEVQIDEPVLVLDLPANAQAAIKKAYTYFGEQSNLPKITLATYFGTVVPNLDAIKGLPVAALHVDFVRAPEQFDEVVAAIGNKQTLSVGIVDGRNIWKNDFKKSSAIVNKAIEKLGADRVVVATSSSLLHTPVDLNNETKLDAEIKGFFSFATQKLDEVVVITKNVSGQDVAAALEANAKSVESRGKSKFIHDAAVKARVASIDEKMSTRAAPFEQRLPEQQKVFNLPLFPTTTIGSFPQTKDIRINRNKFNKGTISAEEYEKFINSEIEKVIRFQEEIGLDVLVHGEPERNDMVQYFGEQINGYAFTVNGWVQSYGSRYVRPPIIVGDLSRPKAMSVKESVYAQSITSKPVKGMLTGPITCLRWSFPRDDVDQKTQAMQLALALRDEVNDLEAAGIKVIQVDEPALREGLPLREGTERSAYYTWAAEAFRVATSGVANKTQIHSHFCYSDLDPNHIKALDADVVSIEFSKKDDANYIAEFKNYPNHIGLGLFDIHSPRIPSKDEFIAKISTILKSYPAEKFWVNPDCGLKTRGWEETRLSLTHMVEAAKYFREQYKN
B9: Ahp1 (protein, UniProt P38013 1-176)
chain: MSDLVNKKFPAGDYKFQYIAISQSDADSESCKMPQTVEWSKLISENKKVIITGAPAAFSPTCTVSHIPGYINYLDELVKEKEVDQVIVVTVDNPFANQAWAKSLGVKDTTHIKFASDPGCAFTKSIGFELAVGDGVYWSGRWAMVVENGIVTYAAKETNPGTDVTVSSVESVLAHL
B10: Sec31 (protein, UniProt P38968 1-1273)
chain: MVKLAEFSRTATFAWSHDKIPLLVSGTVSGTVDANFSTDSSLELWSLLAADSEKPIASLQVDSKFNDLDWSHNNKIIAGALDNGSLELYSTNEANNAINSMARFSNHSSSVKTVKFNAKQDNVLASGGNNGEIFIWDMNKCTESPSNYTPLTPGQSMSSVDEVISLAWNQSLAHVFASAGSSNFASIWDLKAKKEVIHLSYTSPNSGIKQQLSVVEWHPKNSTRVATATGSDNDPSILIWDLRNANTPLQTLNQGHQKGILSLDWCHQDEHLLLSSGRDNTVLLWNPESAEQLSQFPARGNWCFKTKFAPEAPDLFACASFDNKIEVQTLQNLTNTLDEQETETKQQESETDFWNNVSREESKEKPTVFHLQAPTWYGEPSPAAHWAFGGKLVQITPDGKGVSITNPKISGLESNTTLSEALKTKDFKPLINQRLVKVIDDVNEEDWNLLEKLSMDGTEEFLKEALAFDNDESDAQDDANNEKEDDGEEFFQQIETNFQPEGDFSLSGNIEQTISKNLVSGNIKSAVKNSLENDLLMEAMVIALDSNNERLKESVKNAYFAKYGSKSSLSRILYSISKREVDDLVENLDVSQWKFISKAIQNLYPNDIAQRNEMLIKLGDRLKENGHRQDSLTLYLAAGSLDKVASIWLSEFPDLEDKLKKDNKTIYEAHSECLTEFIERFTVFSNFINGSSTINNEQLIAKFLEFINLTTSTGNFELATEFLNSLPSDNEEVKTEKARVLIASGKSLPAQNPATATTSKAKYTNAKTNKNVPVLPTPGMPSTTSIPSMQAPFYGMTPGASANALPPKPYVPATTTSAPVHTEGKYAPPSQPSMASPFVNKTNSSTRLNSFAPPPNPYATATVPATNVSTTSIPQNTFAPIQPGMPIMGDYNAQSSSIPSQPPINAVSGQTPHLNRKANDGWNDLPLKVKEKPSRAKAVSVAPPNILSTPTPLNGIPANAASTMPPPPLSRAPSSVSMVSPPPLHKNSRVPSLVATSESPRASISNPYAPPQSSQQFPIGTISTANQTSNTAQVASSNPYAPPPQQRVATPLSGGVPPAPLPKASNPYAPTATTQPNGSSYPPTGPYTNNHTMTSPPPVFNKPPTGPPPISMKKRSNKLASIEQNPSQGATYPPTLSSSASPLQPSQPPTLASQVNTSAENVSHEIPADQQPIVDFLKEELARVTPLTPKEYSKQLKDCDKRLKILFYHLEKQDLLTQPTIDCLHDLVALMKEKKYKEAMVIHANIATNHAQEGGNWLTGVKRLIGIAEATLN

Each binder was assayed against T1, Dhh1−GFP (S. cerevisiae (endogenous in BY4741-derived yeast)) (assay: affinity purification with mass spectrometry; Dhh1−GFP captured by anti-GFP IgG cross-linked to Protein-G Dynabeads from cleared lysate of cryo-ground yeast; RB buffer (30 mM K-Hepes pH 7.4, 150 mM KCl, 2 mM MgCl2, 0.2% NP-40, 0.1% Tween-20, 1 mM DTT, RNase inhibitor), 30 min at 4°; five purifications (two +glucose YPD, three 30 min −glucose YEP); hits filtered by SAINT against CRAPome controls).
For B1, the binding was “binds”.
For B2, the binding was “binds”.
For B3, the binding was “binds”.
B4 was tested, and the binding was “binds”.
In the case of B5, the binding is reported as “binds”.
B6 was tested, and the binding was “binds”.
With B7 the binding was “binds”.
In the case of B8, the binding is reported as “binds”.
For B9, the binding was “binds”.
B10 was tested, and the binding was “binds”.
